# Measurements as given in paper PMC5352194 (Oncotarget, 2016).
# Strings that start with PEPTIDE1 are HELM notation: dots part the residues, brackets hold end groups and non-standard residues.
# Experiments:
# [1] = general procedure: Fmoc solid-phase peptide synthesis; 2-chlorotrityl chloride resin (1.12 mmol/gr); PyBop, DIPA; settings: whole synthesis, LC-MS
# [2] = general procedure: Fmoc solid-phase peptide synthesis; 2-chlorotrityl chloride resin; PyBop, DIPA; settings: whole synthesis
substance,measurement,setting,value
"PEPTIDE1{[FITC5].[GABA].C.S.S.A.G.S.L.F.C}$PEPTIDE1,PEPTIDE1,3:R3-11:R3$$$V2.0",final purity (method not given),[1],95%
same,isolated yield,[2],42%
